From the supplement of paper PMC10849652
The list shows a part of the results.

The chains behind the UniProt entries cited, without tags or fusion partners. Where a name states a change or a piece, a line headed by the entry shows the natural chain unless it says otherwise.
UniProt Q6DT37: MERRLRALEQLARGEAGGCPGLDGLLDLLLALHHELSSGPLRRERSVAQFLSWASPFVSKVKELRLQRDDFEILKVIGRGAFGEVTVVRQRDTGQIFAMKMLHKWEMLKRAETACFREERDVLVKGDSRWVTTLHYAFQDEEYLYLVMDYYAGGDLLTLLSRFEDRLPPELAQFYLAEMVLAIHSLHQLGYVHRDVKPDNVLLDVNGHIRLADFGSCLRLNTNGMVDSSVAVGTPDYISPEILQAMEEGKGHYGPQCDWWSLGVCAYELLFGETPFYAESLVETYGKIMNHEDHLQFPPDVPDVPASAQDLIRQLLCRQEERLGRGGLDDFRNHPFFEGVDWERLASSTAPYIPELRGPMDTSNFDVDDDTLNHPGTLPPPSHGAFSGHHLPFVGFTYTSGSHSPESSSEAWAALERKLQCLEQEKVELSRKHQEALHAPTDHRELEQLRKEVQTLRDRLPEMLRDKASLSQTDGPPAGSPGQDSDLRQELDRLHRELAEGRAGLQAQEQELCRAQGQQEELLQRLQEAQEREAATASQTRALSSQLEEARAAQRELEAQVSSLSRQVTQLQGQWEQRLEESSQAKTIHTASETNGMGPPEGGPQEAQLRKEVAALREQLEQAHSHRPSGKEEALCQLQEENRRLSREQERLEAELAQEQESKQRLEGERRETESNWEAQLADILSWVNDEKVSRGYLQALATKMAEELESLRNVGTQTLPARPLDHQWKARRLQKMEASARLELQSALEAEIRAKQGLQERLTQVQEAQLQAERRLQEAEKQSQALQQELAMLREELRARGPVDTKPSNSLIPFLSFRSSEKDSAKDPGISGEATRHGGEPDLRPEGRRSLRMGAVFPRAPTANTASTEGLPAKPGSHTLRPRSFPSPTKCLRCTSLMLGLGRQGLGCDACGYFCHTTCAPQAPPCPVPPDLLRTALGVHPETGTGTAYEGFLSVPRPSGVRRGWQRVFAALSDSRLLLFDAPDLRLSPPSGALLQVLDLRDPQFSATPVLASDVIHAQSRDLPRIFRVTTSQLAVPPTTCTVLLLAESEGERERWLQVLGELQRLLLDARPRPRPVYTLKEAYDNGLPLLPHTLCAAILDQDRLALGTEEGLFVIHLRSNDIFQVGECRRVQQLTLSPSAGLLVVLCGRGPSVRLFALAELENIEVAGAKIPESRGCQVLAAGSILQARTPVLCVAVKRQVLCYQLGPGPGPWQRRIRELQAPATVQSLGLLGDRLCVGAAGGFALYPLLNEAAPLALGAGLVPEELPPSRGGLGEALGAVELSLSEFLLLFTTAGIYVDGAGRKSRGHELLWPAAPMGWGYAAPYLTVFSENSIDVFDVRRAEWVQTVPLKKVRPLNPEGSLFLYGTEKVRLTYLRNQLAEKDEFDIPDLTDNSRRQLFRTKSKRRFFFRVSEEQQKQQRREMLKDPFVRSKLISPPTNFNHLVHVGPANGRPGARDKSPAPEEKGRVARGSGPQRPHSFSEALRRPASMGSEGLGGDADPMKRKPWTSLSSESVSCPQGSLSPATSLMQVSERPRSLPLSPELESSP
UniProt Q96MT8: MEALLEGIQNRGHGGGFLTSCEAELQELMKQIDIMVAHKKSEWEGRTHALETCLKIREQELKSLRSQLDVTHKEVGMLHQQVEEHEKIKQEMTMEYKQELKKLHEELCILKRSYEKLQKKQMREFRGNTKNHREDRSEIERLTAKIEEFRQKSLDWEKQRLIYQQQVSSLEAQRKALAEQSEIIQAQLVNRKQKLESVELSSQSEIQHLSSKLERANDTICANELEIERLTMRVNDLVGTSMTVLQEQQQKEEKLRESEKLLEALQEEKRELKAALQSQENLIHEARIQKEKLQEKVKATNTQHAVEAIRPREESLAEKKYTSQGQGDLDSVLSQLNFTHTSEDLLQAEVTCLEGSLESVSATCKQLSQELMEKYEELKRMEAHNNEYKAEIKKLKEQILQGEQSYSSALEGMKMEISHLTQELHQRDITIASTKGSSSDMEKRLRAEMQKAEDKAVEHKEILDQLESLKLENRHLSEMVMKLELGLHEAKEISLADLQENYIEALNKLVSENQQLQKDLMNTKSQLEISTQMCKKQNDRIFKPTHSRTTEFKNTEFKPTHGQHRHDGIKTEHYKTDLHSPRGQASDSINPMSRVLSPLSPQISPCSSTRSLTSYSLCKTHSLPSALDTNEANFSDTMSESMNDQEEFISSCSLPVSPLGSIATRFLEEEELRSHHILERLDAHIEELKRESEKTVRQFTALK
UniProt Q8TCZ2: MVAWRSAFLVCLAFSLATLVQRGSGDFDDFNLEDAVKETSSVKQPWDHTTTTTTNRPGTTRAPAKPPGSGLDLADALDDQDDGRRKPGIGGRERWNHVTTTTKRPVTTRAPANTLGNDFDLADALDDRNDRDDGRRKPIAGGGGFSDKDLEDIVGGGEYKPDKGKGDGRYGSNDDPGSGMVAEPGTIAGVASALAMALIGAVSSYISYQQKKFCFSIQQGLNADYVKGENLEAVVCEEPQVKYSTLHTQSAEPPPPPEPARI
UniProt Q9UNH5: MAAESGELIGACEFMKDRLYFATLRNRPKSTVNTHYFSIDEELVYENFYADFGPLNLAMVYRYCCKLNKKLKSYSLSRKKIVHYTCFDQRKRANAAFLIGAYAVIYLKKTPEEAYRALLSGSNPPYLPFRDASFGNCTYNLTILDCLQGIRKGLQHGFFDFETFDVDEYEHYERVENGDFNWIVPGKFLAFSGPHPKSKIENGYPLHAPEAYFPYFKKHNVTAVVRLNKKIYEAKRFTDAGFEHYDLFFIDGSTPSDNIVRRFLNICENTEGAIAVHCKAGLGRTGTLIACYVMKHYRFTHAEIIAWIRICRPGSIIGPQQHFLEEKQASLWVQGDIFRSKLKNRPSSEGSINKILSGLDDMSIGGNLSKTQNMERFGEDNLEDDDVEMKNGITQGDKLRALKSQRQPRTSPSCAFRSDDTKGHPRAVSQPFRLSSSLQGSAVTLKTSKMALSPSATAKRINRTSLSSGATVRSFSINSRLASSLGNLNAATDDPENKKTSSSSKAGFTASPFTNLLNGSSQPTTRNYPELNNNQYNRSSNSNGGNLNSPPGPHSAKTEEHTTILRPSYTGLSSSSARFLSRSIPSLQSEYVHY
UniProt Q9BXL8: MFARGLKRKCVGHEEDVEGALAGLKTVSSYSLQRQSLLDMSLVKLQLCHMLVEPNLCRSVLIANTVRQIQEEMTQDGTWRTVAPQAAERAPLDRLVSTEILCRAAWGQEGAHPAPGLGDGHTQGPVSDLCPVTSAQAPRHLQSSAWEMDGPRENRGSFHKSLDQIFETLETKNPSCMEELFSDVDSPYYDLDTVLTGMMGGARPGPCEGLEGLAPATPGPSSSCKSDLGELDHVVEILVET
UniProt Q9P2B7: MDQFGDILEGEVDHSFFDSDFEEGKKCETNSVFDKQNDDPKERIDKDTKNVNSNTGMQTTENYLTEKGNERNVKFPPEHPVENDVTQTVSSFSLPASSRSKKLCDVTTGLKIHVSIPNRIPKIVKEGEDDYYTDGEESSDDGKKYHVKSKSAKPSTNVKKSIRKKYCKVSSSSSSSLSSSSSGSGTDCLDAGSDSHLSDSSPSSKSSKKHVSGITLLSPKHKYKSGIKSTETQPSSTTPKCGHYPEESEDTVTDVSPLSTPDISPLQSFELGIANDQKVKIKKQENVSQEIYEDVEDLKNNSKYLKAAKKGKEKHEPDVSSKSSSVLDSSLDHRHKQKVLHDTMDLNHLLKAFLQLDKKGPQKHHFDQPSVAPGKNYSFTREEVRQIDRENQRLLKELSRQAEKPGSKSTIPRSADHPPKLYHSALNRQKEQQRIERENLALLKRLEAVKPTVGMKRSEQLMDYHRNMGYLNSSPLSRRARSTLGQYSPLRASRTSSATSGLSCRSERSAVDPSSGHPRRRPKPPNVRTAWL
UniProt Q9P209, whole entry, looked up: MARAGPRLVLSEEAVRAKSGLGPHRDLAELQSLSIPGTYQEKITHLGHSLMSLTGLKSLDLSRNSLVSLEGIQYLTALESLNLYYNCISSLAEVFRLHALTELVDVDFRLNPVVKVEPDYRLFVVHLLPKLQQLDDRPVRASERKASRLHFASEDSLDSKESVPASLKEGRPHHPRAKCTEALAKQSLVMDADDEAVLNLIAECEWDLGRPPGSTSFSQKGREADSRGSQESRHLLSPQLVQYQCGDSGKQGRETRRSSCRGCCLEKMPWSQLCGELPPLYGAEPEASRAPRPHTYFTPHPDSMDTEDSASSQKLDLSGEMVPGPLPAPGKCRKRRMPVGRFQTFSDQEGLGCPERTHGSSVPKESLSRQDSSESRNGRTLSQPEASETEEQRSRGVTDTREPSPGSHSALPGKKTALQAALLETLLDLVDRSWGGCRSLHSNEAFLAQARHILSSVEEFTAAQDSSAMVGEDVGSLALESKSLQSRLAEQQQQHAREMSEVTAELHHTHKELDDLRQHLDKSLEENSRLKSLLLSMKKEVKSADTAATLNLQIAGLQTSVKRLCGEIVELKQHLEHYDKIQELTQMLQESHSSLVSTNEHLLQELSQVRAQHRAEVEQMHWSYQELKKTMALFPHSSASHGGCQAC
UniProt A8MT69: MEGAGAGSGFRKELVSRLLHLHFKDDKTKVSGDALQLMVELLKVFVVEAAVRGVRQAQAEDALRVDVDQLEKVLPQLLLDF
UniProt Q99741: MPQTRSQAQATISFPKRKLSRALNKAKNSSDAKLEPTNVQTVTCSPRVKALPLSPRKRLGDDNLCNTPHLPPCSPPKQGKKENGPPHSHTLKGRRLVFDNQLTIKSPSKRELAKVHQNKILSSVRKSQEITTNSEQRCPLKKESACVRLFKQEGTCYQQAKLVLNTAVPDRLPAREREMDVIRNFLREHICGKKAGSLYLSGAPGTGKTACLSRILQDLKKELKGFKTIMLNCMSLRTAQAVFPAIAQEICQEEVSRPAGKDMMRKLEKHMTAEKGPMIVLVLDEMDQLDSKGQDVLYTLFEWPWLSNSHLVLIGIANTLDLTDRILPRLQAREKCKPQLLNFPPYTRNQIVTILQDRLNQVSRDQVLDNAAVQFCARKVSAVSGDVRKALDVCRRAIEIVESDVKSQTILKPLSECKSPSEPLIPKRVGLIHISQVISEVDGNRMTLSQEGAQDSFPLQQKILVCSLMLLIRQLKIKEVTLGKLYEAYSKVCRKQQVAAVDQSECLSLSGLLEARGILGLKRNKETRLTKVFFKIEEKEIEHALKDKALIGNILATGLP
UniProt O15519, whole entry, looked up: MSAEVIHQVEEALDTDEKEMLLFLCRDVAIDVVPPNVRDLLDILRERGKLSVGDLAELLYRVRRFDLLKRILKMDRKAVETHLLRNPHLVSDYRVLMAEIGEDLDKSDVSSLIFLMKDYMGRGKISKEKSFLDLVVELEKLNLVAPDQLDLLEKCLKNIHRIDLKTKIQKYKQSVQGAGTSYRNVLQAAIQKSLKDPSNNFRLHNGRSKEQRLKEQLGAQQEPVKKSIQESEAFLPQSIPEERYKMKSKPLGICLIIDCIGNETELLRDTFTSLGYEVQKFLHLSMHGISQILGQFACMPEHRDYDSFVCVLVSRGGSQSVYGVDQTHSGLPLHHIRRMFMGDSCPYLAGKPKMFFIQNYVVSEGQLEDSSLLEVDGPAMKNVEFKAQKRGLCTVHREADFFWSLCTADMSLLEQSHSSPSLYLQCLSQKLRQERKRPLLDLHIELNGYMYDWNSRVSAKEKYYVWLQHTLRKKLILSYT

Compound: CC(=O)c1cnc2ccc(-c3cc(Cl)c(O)c(Cl)c3)nc2c1N[C@H]1CC[C@H](CN(C)C)CC1
Experiment: log2 fold change, soluble protein after heating vs DMSO (PISA); higher = thermal stabilisation; K562 lysate, 10 uM; active = over 0.2 and 3.5 SD of the protein, either way, in both replicates (recomputed)
How it was run: (§1)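 Thermal stability, expressed as log-two fold change relative to solvent controls, is given from duplicates. Crude K562 extract in PBS pH 7.4 with 1 mM MgCl2, at 1 mg/mL protein, was treated with 10 μM compound for 30 min and heated in aliquots for 3 min across 48°C-58°C. After pooling, adjustment to 0.5% NP-40 at 4°C and centrifugation at 21,000xg for 90 min, supernatant protein was measured by TMTpro 16plex LC-MS/MS with channel sums equalised.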

| Target | log2 fold change |
| --- | --- |
| CDNF (UniProt Q49AH0) | inactive: -0.187 |
| CDC42BPG (UniProt Q6DT37) | inactive: -0.153 |
| CD82 (UniProt P27701) | inactive: -0.072 |
| CEP63 (UniProt Q96MT8) | inactive: -0.047 |
| CDKL5 (UniProt O76039) | inactive: 0.088 |
| CEP170B (UniProt Q9Y4F5) | inactive: 0.122 |
| CD99L2 isoform 5 (UniProt Q8TCZ2) | inactive: 0.228 |
| CEP83 (UniProt Q9Y592) | inactive: -0.054 |
| CDC14A isoform 2 (UniProt Q9UNH5) | inactive: 0.107 |
| CDC42, A0A494C1M1 | inactive: -0.01 |

Compound: CC(C)(C)Cn1c(N)nc2ccc(-c3[nH]c(C(C)(C)C)nc3-c3ccc(F)cc3)nc21 [ralimetinib]
Experiment: as above
How it was run: as §1

| Target | log2 fold change |
| --- | --- |
| CDCA4 (UniProt Q9BXL8) | inactive: -0.044 |
| CFAP97 (UniProt Q9P2B7) | inactive: 0.021 |
| CEP72 (UniProt Q9P209) | inactive: -0.055 |
| CDC42BPG (UniProt Q6DT37) | inactive: -0.035 |
| CDPF1 (UniProt Q6NVV7) | inactive: -0.111 |
| CENPX (UniProt A8MT69) | inactive: -0.014 |
| CDC6 (UniProt Q99741) | inactive: -0.061 |
| CD82 (UniProt P27701) | inactive: -0.047 |
| CDC42EP2 (UniProt O14613) | inactive: -0.008 |
| CFLAR (UniProt O15519) | inactive: -0.025 |
| CEP104 (UniProt O60308) | inactive: -0.054 |
| CEP83 (UniProt Q9Y592) | inactive: 0.029 |
| CENPC (UniProt Q03188) | inactive: 0.013 |
| CDC14A isoform 2 (UniProt Q9UNH5) | inactive: -0.336 |

Compound: CC(C)(O)CC(=O)NCCn1ccc2ncnc(Nc3ccc(Oc4cccc(C(F)(F)F)c4)c(Cl)c3)c21
Experiment: as above
How it was run: as §1

| Target | log2 fold change |
| --- | --- |
| CDCA4 (UniProt Q9BXL8) | inactive: -0.197 |
| CFAP97 (UniProt Q9P2B7) | inactive: 0.05 |
| CEP72 (UniProt Q9P209) | inactive: -0.122 |
| CDC42BPG (UniProt Q6DT37) | inactive: -0.259 |
| CDPF1 (UniProt Q6NVV7) | inactive: -0.036 |
| CENPX (UniProt A8MT69) | inactive: 0.161 |
| CDC6 (UniProt Q99741) | inactive: 0.044 |
| CD82 (UniProt P27701) | inactive: -0.011 |
| CDC42EP2 (UniProt O14613) | inactive: 0.07 |
| CFLAR (UniProt O15519) | inactive: 0.112 |
| CEP104 (UniProt O60308) | inactive: 0.015 |
| CEP83 (UniProt Q9Y592) | inactive: -0.087 |
| CENPC (UniProt Q03188) | inactive: 0.165 |
| CDC14A isoform 2 (UniProt Q9UNH5) | inactive: -0.135 |

Compound: CC(C)C1=C2N=C(C=C(N2N=C1)NCC3=CC=CC=C3)NCCCCCCN
Experiment: as above
How it was run: as §1

| Target | log2 fold change |
| --- | --- |
| CFAP97 (UniProt Q9P2B7) | inactive: 0.008 |
| CENPO (UniProt Q9BU64) | inactive: -0.06 |
| CEP78 isoform 2 (UniProt Q5JTW2) | inactive: -0.074 |
| CEP72 (UniProt Q9P209) | inactive: 0.044 |
| CDC6 (UniProt Q99741) | inactive: 0.14 |
| CD82 (UniProt P27701) | inactive: -0.006 |
| CEP63 (UniProt Q96MT8) | inactive: 0.18 |
| CEP57 (UniProt Q86XR8) | inactive: -0.054 |
| CEP85L isoform 4 (UniProt Q5SZL2) | inactive: -0.154 |
| CENPT (UniProt Q96BT3) | inactive: 0.006 |
| CEP68 (UniProt Q76N32) | inactive: 0.14 |
| CD99L2 isoform 5 (UniProt Q8TCZ2) | inactive: -0.034 |
| CEP83 (UniProt Q9Y592) | inactive: 0.04 |
| CENPC (UniProt Q03188) | inactive: 0.058 |
| CELSR2 (UniProt Q9HCU4) | inactive: -0.211 |

Compound: CC1=C(C(CC(=O)N1)C2=CC=C(C=C2)C(F)(F)F)C(=O)NC3=C(C=C4C(=C3)C=NN4)F
Experiment: as above
How it was run: as §1

| Target | log2 fold change |
| --- | --- |
| CENPO (UniProt Q9BU64) | inactive: 0 |
| CDC42BPG (UniProt Q6DT37) | inactive: 0.058 |
| CDC6 (UniProt Q99741) | inactive: 0.03 |
| CD82 (UniProt P27701) | inactive: -0.045 |
| CEP63 (UniProt Q96MT8) | inactive: -0.084 |
| CD99L2 isoform 5 (UniProt Q8TCZ2) | inactive: -0.048 |
| CEP83 (UniProt Q9Y592) | inactive: 0.112 |
| CDC14A isoform 2 (UniProt Q9UNH5) | inactive: -0.04 |
| CDC42, A0A494C1M1 | inactive: -0.029 |

Compound: CC1=C(C2=C(C=C1)C(=O)C3=CC=CC=C3N2CCCN)C
Experiment: as above
How it was run: as §1

| Target | log2 fold change |
| --- | --- |
| CDCA4 (UniProt Q9BXL8) | inactive: -0.02 |
| CFAP97 (UniProt Q9P2B7) | inactive: 0.089 |
| CEP78 isoform 2 (UniProt Q5JTW2) | inactive: -0.116 |
| CEP72 (UniProt Q9P209) | inactive: -0.097 |
| CEP170 isoform 2 (UniProt Q5SW79) | inactive: -0.206 |
| CDC42BPG (UniProt Q6DT37) | inactive: -0.015 |
| CDC6 (UniProt Q99741) | inactive: 0 |
| CEP63 (UniProt Q96MT8) | inactive: 0.053 |
| CFLAR (UniProt O15519) | inactive: -0.143 |
| CD9 (UniProt P21926) | inactive: -0.067 |
| CDKL5 (UniProt O76039) | inactive: -0.351 |
| CEP170B (UniProt Q9Y4F5) | inactive: -0.003 |
| CEP68 (UniProt Q76N32) | inactive: -0.038 |
| CD99L2 isoform 5 (UniProt Q8TCZ2) | inactive: 0.056 |
| CENPC (UniProt Q03188) | inactive: 0.076 |
